About 210 (0.4%) of roughly 52,000 sequences were called active.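 Rule for the calls: active = gene whose silencing raises cell survival under the drug, median off-target-corrected z-score across its silencing RNAs 2 or more; inactive = the rest.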 This is one part of the list.
Assay: Resistance to Poly (ADP-Ribose) Polymerase inhibitor: Gene Identification via Genome-wide siRNA Screen
Conditions: mouse BRCA2 R2336H ES cells, olaparib, CellTiter-Glo viability; hits give high values
Outline: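 Genome-wide siRNA screen (3 siRNAs/gene, 20 nM) in mouse ES cells carrying hypomorphic BRCA2 R2336H; olaparib 500 nM added 48 h post-transfection, CellTiter-Glo viability 72 h later. Normalized to plate-median negative control; MAD z-scores, gene median, seed-adjusted.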
In the case of “GGUGAAGAUUGAGAAGGAGTT against 2810401C16Rik”, the z-score is reported as inactive: -0.799. For GGUCGCACAAGGUAUUAUATT against LOC224833, the z-score was inactive: 1.52. For “GGAGGUGAUGAUAAUCAAUTT against 6720458F09Rik”, the z-score was inactive: 0.579. In the case of “GAGACCUUCACAAAGUUGUTT against 2810036L13Rik”, the z-score is reported as inactive: 0.135. For GGUAAAGAUCUUUGAAGAGTT against Tnip1, the z-score was inactive: -0.463. In the case of GACUAAACAGAUCUUCUCUTT against Klra15, the z-score is reported as inactive: 0.285. For GGAUAUUUUCAAUGCUGUUTT against Large, the z-score was inactive: 2.29. In the case of GAAAGUGGAAGCCACCAGUTT against Olfr110, the z-score is reported as inactive: -0.546. In the case of GGGCUUCAGUAGUCUUCAATT against Sprr2j, the z-score is reported as inactive: -1.88. In the case of GGAUUUGAAAUAGGAAUAGTT against Sh3yl1, the z-score is reported as inactive: 0.551. For “GGCUUCUAAAAAUUUCACATT against A030012E10”, the z-score was inactive: -0.16. For CCUCUCCUGGUCUUAACAGTT against Rem2, the z-score was inactive: -1.76. In the case of GGAUAAGCGUAUUUCUUUGTT against Olfr1015, the z-score is reported as inactive: 0.516. In the case of GCAAUUAGAGAUGAAGCAATT against Ndufaf1, the z-score is reported as inactive: -1.87. For GCGAAUGAGAUACGAGUACTT against Ust, the z-score was inactive: -2.09. For “GGGAUACUUUCUUCGAGGATT against 6330407J23Rik”, the z-score was inactive: -0.334. In the case of CCGAAAAAUAUGUUUUCCGTT against Mettl4, the z-score is reported as inactive: -0.668. For “GGCACAAUUAGCUAAGAAUTT against D930038M13Rik”, the z-score was inactive: 1.36. For “CGCACAUUCUUCAUAACACTT against 3110005O21Rik”, the z-score was inactive: 1.34. With GAUGCUAGUGAACCUCAUGTT against Olfr1020 the z-score was inactive: -0.814. In the case of “GGAGGUGUGGGUACCUUCUTT against 4732481H14Rik”, the z-score is reported as inactive: -0.916. For “CGCCAGAGUGCAUAGUCUUTT against B230380D07Rik”, the z-score was inactive: -0.832. With GGUAUUCAGUAUUUUGACUTT against Olfr196 the z-score was inactive: 0.94. In the case of CCGUAUUUGGACUGAGCAATT against Chic2, the z-score is reported as inactive: 1.75. With GGCUGCUGACAUUUUCAUCTT against Lrrc28 the z-score was inactive: 0.0806. In the case of GGAUGUCAGAGAUAUAUUUTT against Fbxo18, the z-score is reported as inactive: 0.931. In the case of CCAGGAGUCGAGUGAUGGUTT against Rtl1, the z-score is reported as inactive: -0.961. In the case of GGGAAAUUGUUCGUGACAUTT against Actg, the z-score is reported as inactive: 0.431.

From PubChem BioAssay AID1347423 (Functional Genomics Laboratory (NCATS/FGL), 2020)
